These are yes or no findings as the source states them, for the method shown. Binding seen in cells or lysates may run through a third protein. Some results given as binding are weak or reduced against the parent protein; the word gives no strength. Tags and fused reporters may be left off the sequences shown.
T1: nLuc-HAT1 (35S:nLuc-HAT1) (Arabidopsis thaliana) (UniProt P46600)
T1 sequence: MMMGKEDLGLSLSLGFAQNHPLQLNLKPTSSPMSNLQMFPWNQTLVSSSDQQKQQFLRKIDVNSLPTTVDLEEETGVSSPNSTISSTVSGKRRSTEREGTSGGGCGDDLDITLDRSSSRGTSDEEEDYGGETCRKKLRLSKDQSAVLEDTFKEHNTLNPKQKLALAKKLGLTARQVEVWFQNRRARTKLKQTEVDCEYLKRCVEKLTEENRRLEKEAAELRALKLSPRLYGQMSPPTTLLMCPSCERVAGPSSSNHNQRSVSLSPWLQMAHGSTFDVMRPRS

T2: HAT1-GFP (pHAT1:HAT1-GFP) (Arabidopsis thaliana) (UniProt P46600)
T2 sequence: T1 sequence

B1: cLuc-CAMTA3 (35S:cLuc-CAMTA3) (protein, UniProt Q8GSA7 1-1032)
chain: MAEARRFSPVHELDVGQILSEARHRWLRPPEICEILQNYQRFQISTEPPTTPSSGSVFMFDRKVLRYFRKDGHNWRKKKDGKTVKEAHERLKAGSVDVLHCYYAHGQDNENFQRRSYWLLQEELSHIVFVHYLEVKGSRVSTSFNRMQRTEDAARSPQETGDALTSEHDGYASCSFNQNDHSNHSQTTDSASVNGFHSPELEDAESAYNQHGSSTAYSHQELQQPATGGNLTGFDPYYQISLTPRDSYQKELRTIPVTDSSIMVDKSKTINSPGVTNGLKNRKSIDSQTWEEILGNCGSGVEALPLQPNSEHEVLDQILESSFTMQDFASLQESMVKSQNQELNSGLTSDRTVWFQGQDMELNAISNLASNEKAPYLSTMKQHLLHGALGEEGLKKMDSFNRWMSKELGDVGVIADANESFTQSSSRTYWEEVESEDGSNGHNSRRDMDGYVMSPSLSKEQLFSINDFSPSWAYVGCEVVVFVTGKFLKTREETEIGEWSCMFGQTEVPADVISNGILQCVAPMHEAGRVPFYVTCSNRLACSEVREFEYKVAESQVFDREADDESTIDILEARFVKLLCSKSENTSPVSGNDSDLSQLSEKISLLLFENDDQLDQMLMNEISQENMKNNLLQEFLKESLHSWLLQKIAEGGKGPSVLDEGGQGVLHFAASLGYNWALEPTIIAGVSVDFRDVNGWTALHWAAFFGRERIIGSLIALGAAPGTLTDPNPDFPSGSTPSDLAYANGHKGIAGYLSEYALRAHVSLLSLNDKNAETVEMAPSPSSSSLTDSLTAVRNATQAAARIHQVFRAQSFQKKQLKEFGDKKLGMSEERALSMLAPKTHKSGRAHSDDSVQAAAIRIQNKFRGYKGRKDYLITRQRIIKIQAHVRGYQFRKNYRKIIWSVGVLEKVILRWRRKGAGLRGFKSEALVEKMQDGTEKEEDDDFFKQGRKQTEDRLQKALARVKSMVQYPEARDQYRRLLNVVNDIQESKVEKALENSEATCFDDDDDLIDIEALLEDDDTLMLPMSSSLWTS
B2: CAMTA3, endogenous (protein, UniProt Q8GSA7 1-1032)
chain: B1 chain

Experiments:
[1] = biological target: T1, nLuc-HAT1 (35S:nLuc-HAT1) (Arabidopsis thaliana); assay: split reporter
[2] = biological target: T2, HAT1-GFP (pHAT1:HAT1-GFP) (Arabidopsis thaliana); assay: co-IP

Row | Binder | binding [1] | binding [2]
1 | B1 | binds | 
2 | B2 |  | binds

— publication doi:10.1101/2024.08.29.610327
